Assay results: US7732412B2 (Zentaris GmbH, priority 1999, dated 2010)

Key:
[1] = Fmoc solid-phase peptide synthesis; aminomethyl-substituted resin, Type D-1675, Bachem; DIC/HOBt; conditions: whole synthesis, trifluoroacetate (Examples 7-9)
[2] = solid-phase peptide synthesis; conditions: for final purity (method not given): HPLC
[3] = general procedure: Boc solid-phase peptide synthesis; MBHA resin; DIC/HOBt; conditions: whole synthesis, scale 3.3 g MBHA resin, trifluoroacetate (Examples 7-9)
[4] = late stage modification step, trifluoroacetate
[5] = whole synthesis, scale 2.5 g MBHA resin, trifluoroacetate (Examples 7-9)
[6] = whole synthesis, scale 9.2 g MBHA resin, trifluoroacetate (Examples 7-9)
[7] = whole synthesis, scale 4.0 g MBHA resin, trifluoroacetate (Examples 7-9)

For “Ac-D-Nal(2)^1-D-Cpa^2-D-Pal(3)^3-Ser^4-N-Me-Tyr^5-D-Lys(B)^6-Nle^7-Lys(iPr)^8-Pro^9-Sar^10-NH2”, the “crude HPLC purity” value [1] was “about 59%”, the “final purity (method not given)” value [2, 4] was 96.6% and the “final purity (method not given)” value ([2]; whole synthesis, trifluoroacetate (Examples 7-9)) was 95%.
With “Ac-D-Nal(2)^1-D-Cpa^2-D-Pal(3)^3-Ser^4-N-Me-Tyr^5-D-Lys(B)^6-Nle^7-Arg^8-Pro^9-Sar^10-NH2” the “final purity (method not given)” value ([1]; HPLC) was 98.5% and the “final purity (method not given)” value [2, 4] was “about 99%”.
With “Ac-D-Nal(2)^1-D-Cpa^2-D-Pal(3)^3-Ser^4-N-Me-Tyr^5-D-Lys(B)^6-Nle^7-Arg^8-Pro^9-D-Ala^10-NH2” the “crude HPLC purity” value [1] was “about 71%” and the “final purity (method not given)” value [2, 4] was 98.8%.
Substance “Ac-D-Nal(2)^1-D-Cpa^2-D-Pal(3)^3-Ser^4-N-Me-Tyr^5-D-Hci^6-Nle^7-Lys(iPr)^8-Pro^9-D-Ala^10-NH2” has a crude mass [2, 5] of 2.78 g and an isolated mass [2, 5] of 400 mg.
With “Ac-D-Nal(2)^1-D-Cpa^2-D-Pal(3)^3Ser^4-N-Me-Tyr^5-D-Hci^6-Nle^7Lys(iPr)^8-Pro^9-Sar^10-NH2” the crude mass [2, 5] was 2.74 g and the isolated mass [2, 5] was 840 mg.
Work on “3-(4-Fluorophenyl)propionyl-D-Nal(1)^1-Ser^4-N-Me-Tyr^5-D-Lys (Atz)^6-Leu^7-Arg^8-Pro^9-D-Ala^10-NH2” yielded a crude mass [2, 6] of 5.8 g and an isolated mass [2, 6] of 2000 mg.
“Ac-D-Nal(2)^1-D-Cpa^2-D-Pal(3)^3-Ser^4-N-Me-Tyr^5-D-Lys(B)^6-Leu^7-Lys(iPr)^8-Pro^9-D-Ala^10-NH2” gave a crude mass [2, 7] of 4.87 g and an isolated mass [2, 7] of 930 mg.
“Ac-D-Nal(2)^1-D-Cpa^2-D-Pal(3)^3-Ser^4-N-Me-Tyr^5-D-Hci^6-Nle^7-Arg^8-Pro^9-D-Ala^10-NH2” showed a crude mass [3] of 3.4 g and an isolated mass [3] of 1.43 g.
